Test results reported in patent publication US8409814B2, “Sensor proteins and assay methods” (Life Technologies Corporation, priority 2006, dated 2013).

B1: Tb-PBP(Q201C)-Fl labeled with 7 parts Tb chelate: E. coli phosphate binding protein mutant Q201C labeled with fluorescein and 7 parts Tb chelate (protein, UniProt P0AG82 26-346, looked up, variant Q201C)
Phosphate-binding protein PstS: EASLTGAGATFPAPVYAKWADTYQKETGNKVNYQGIGSSGGVKQIIANTVDFGASDAPLSDEKLAQEGLFQFPTVIGGVVLAVNIPGLKSGELVLDGKTLGDIYLGKIKKWDDEAIAKLNPGLKLPSQNIAVVRRADGSGTSFVFTSYLAKVNEEWKNNVGTGSTVKWPIGLGGKGNDGIAAFVQRLPGAIGYVEYAYAKCNNLAYTKLISADGKPVSPTEENFANAAKGADWSKTFAQDLTNQKGEDAWPITSTTFILIHKDQKKPEQGTEVLKFFDWAYKTGAKQANDLDYASLPDSVVEQVRAAWKTNIKDSSGKPLY
modifications: fluorescein; Tb chelate (7 parts)
B2: Tb-PBP(Q201C)-Fl labeled with 3 parts Tb chelate: E. coli phosphate binding protein mutant Q201C labeled with fluorescein and 3 parts Tb chelate (protein, UniProt P0AG82 26-346, looked up, variant Q201C)
Phosphate-binding protein PstS: B1 Phosphate-binding protein PstS
modifications: fluorescein; Tb chelate (3 parts)
B3: Tb-PBP(Q201C)-Fl labeled with 10 parts Tb chelate: E. coli phosphate binding protein mutant Q201C labeled with fluorescein and 10 parts Tb chelate (protein, UniProt P0AG82 26-346, looked up, variant Q201C)
Phosphate-binding protein PstS: B1 Phosphate-binding protein PstS
modifications: fluorescein; Tb chelate (10 parts)
B4: Tb-PBP(Q201C)-Fl labeled with 20 parts Tb chelate: E. coli phosphate binding protein mutant Q201C labeled with fluorescein and 20 parts Tb chelate (protein, UniProt P0AG82 26-346, looked up, variant Q201C)
Phosphate-binding protein PstS: B1 Phosphate-binding protein PstS
modifications: fluorescein; Tb chelate (20 parts)

Experiment: TR-FRET assay of Tb-PBP(Q201C)-Fl with phosphate or Phosphate Mop
Assay type: binding
Details: not given

| Molecule | Fold-change in signal (emission ratio with phosphate/ratio with Mop) |
| --- | --- |
| B1 | 2.77 |
| B2 | 3.06 |
| B3 | 2.65 |
| B4 | 2.48 |

Same assay, conditions: 100 nM sensor added to 200 uM phosphate; excited at 340 nm, emission at 520 nm and 495 nm

| Molecule | Emission ratio with phosphate |
| --- | --- |
| B1 | .78 |
| B2 | .72 |
| B3 | .83 |
| B4 | .85 |

Same assay, conditions: 100 nM sensor added to Phosphate Mop (0.8 mM 7-MEG, 4 U/mL PNPase, 1 mM MgCl2); excited at 340 nm, emission at 520 nm and 495 nm

| Molecule | Emission ratio with Mop |
| --- | --- |
| B1 | .28 |
| B2 | .23 |
| B3 | .31 |
| B4 | .34 |
